The record followed here is the supplement of paper PMC9135407.

Several values for one entry are separate records, joined by “and”; a condition that tells them apart may be missing. Equal values may be shown once. Where a name gives a salt, the structure may show the parent alone. ± gives the standard deviation of the averaged measurements. The list shows a part of the results. Part of the spread comes from offsets between plates or batches.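 Assay uses culture-activated primary human stellate myofibroblasts; lipid droplet recovery indicates inactivation. Measured: proportion of Hoechst-counted cells over a plate-specific Bodipy cutoff, duplicate wells, DMSO and nortriptyline as per-plate negative and positive controls. A hit scores, control-normalized, above the plate's top-tenth-percentile nortriptyline wells or ranks among its three best wells. Final well concentrations not reported.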

The test system of the assay is primary human hepatic stellate cells (donor 1). Description: percent Bodipy-positive cells; higher = more lipid droplet accumulation. The following applies: 48 h.
Where [1] appears, read: library stock concentration: 10 mM.
The mark [2] stands for this setting: library stock concentration: 6.7 mM.
[3] abbreviates: library stock concentration: 1 mM.
The mark [4] stands for this setting: library stock concentration: 80 uM.
Where [5] appears, read: library stock concentration: 400 uM.
The mark [6] stands for this setting: library stock concentration: 3.33 mM.

On to `CN1C[C@H](C(=O)N[C@]2(C)O[C@@]3(O)[C@@H]4CCCN4C(=O)[C@H](Cc4ccccc4)N3C2=O)C[C@@H]2c3cccc4[nH]cc(c34)C[C@H]21` [Dihydroergotamine tartrate], for which the “percent Bodipy-positive cells” value worked out at 41.9 ± 7.2%.
For `O=C1NCN(c2ccccc2)C12CCN(CC1COc3ccccc3O1)CC2` (stereo not given) [Spiroxatrine], the “percent Bodipy-positive cells” value (library stock concentration: 5.3 mM) is 12.1 ± 4.2%.
Take `CC1C2Cc3ccc(O)cc3C1(C)CCN2CC1CC1` (single isomer, unassigned; (+)) [(+)-Cyclazocine]: the “percent Bodipy-positive cells” value under setting [1] amounted to 71.49 ± 0.66%.
Consider `C[N+]1(C)[C@@H]2CC[C@H]1C[C@@H](OC(=O)C(CO)c1ccccc1)C2` (stereo not given in full) [Atropine methyl bromide], for which the “percent Bodipy-positive cells” value under setting [1] stood at 50.6 ± 16%.
Regarding `C[N+]1(C)[C@@H]2CC[C@H]1C[C@@H](OC(=O)C(CO)c1ccccc1)C2` (stereo not given in full) [Atropine methyl nitrate], the “percent Bodipy-positive cells” value under setting [1] was found to be 51.7 ± 15%.
With `C[N+]1(C)[C@@H]2CC[C@H]1C[C@@H](OC(=O)C(CO)c1ccccc1)C2` (stereo not given in full) [Methylatropine nitrate], the “percent Bodipy-positive cells” value amounted to 8.64 ± 1.6%.
As to `NC1(c2ccccc2Cl)CCCCC1=O` (stereo not given) [Norketamine hydrochloride], the “percent Bodipy-positive cells” value under setting [1] was determined as 6.43 ± 3.7%.
Regarding `Cl.Cl.Fc1ccc(C(OCCN2CCN(CCCc3ccccc3)CC2)c2ccc(F)cc2)cc1`, the “percent Bodipy-positive cells” value came out at 84.3 ± 3.8%.
In the case of `O=C1NC(=O)c2c1c1c3ccccc3[nH]c1c1[nH]c3ccccc3c21` [Arcyriaflavin A], the “percent Bodipy-positive cells” value under setting [1] is 35.3 ± 3.5%.
As to `CC(CCc1ccccc1)NC(C)C(O)c1ccc(O)cc1` (stereo not given) [Nylidrin hydrochloride], for the setting “library stock concentration: 6 mM”, the “percent Bodipy-positive cells” value came to 19.3 ± 0.69%.
For the compound `COc1cccc(C2(O)CCCCC2CN(C)C)c1` (stereo not given) [Tramadol hydrochloride], the “percent Bodipy-positive cells” value under setting [2] is 15.4 ± 2.9%.
Turning to `COc1cccc(C2(O)CCCCC2CN(C)C)c1` (stereo not given) [Tramadol HCl], the “percent Bodipy-positive cells” value (library stock concentration: 7.6 mM) was found to be 10.1 ± 1.3%.
On to `COc1cccc(C2(O)CCCCC2CN(C)C)c1` (stereo not given) [Tramadol], for which the “percent Bodipy-positive cells” value under setting [1] was 7.35 ± 0.76%.
On to `CC(=O)OC1CN2CCC1CC2` (stereo not given), for which the “percent Bodipy-positive cells” value under setting [1] amounted to 36.1 ± 8.2%.
`CCCN(C/C=C/I)C1CCc2ccc(O)cc2C1` (stereo not given) [7-Hydroxy-PIPAT maleate]: under setting [1], the “percent Bodipy-positive cells” value worked out at 23.4 ± 5.4%.
Still for that read-out and setting: in the case of `N=C(N)c1ccc(CS(=O)(=O)F)cc1` [4-Amidinophenylmethanesulfonyl fluoride hydrochloride] it was 29.1 ± 0.45%.
As for `Cc1c(C(=O)c2cccc3ccccc23)c2cccc3c2n1[C@H](CN1CCOCC1)CO3` [WIN 55,212-2 mesylate], the “percent Bodipy-positive cells” value under setting [3] amounted to 8.24 ± 9.2%.
With `CCCCC/C=C\C/C=C\C/C=C\C/C=C\CCCC(=O)NCCF` [Arachidonoyl-2'-Fluoroethylamide], under setting [3], the “percent Bodipy-positive cells” value was found to be 9.73 ± 2.3%.
For `O=C(O)CNC(=O)c1c(O)c2ccccc2n(Cc2ccccc2)c1=O`, the “percent Bodipy-positive cells” value by setting is: under setting [4], 32 ± 5%; under setting [5], 25.8 ± 1.5%; (library stock concentration: 2 mM) 29.7 ± 5.1%; under setting [6], 13.8 ± 0.44%; under setting [1], 30.1% and 32.3%.
For the compound `CN1CC[C@]23CCCC[C@H]2[C@H]1Cc1ccc(O)cc13`, the “percent Bodipy-positive cells” value (library stock concentration: 9.9 mM) came to 16.1 ± 3.4%.
Turning to `CCCCc1ccc(C(=O)O)nc1` [Fusaric acid], the “percent Bodipy-positive cells” value was determined as 30.9 ± 2.1%. Further, the “percent Bodipy-positive cells” value under setting [1] was found to be 38.2 ± 7.5%.
As to `CCCN1C[C@H](CSC)C[C@@H]2c3cccc4[nH]cc(c34)C[C@H]21`, the “percent Bodipy-positive cells” value under setting [1] was 49.7 ± 1.5%.
Take `CCCN1C[C@H](CSC)C[C@@H]2c3cccc4[nH]cc(c34)C[C@H]21` [Pergolide methanesulfonate]: the “percent Bodipy-positive cells” value under setting [1] was 36.1 ± 5%.
For the compound `CCCN1C[C@H](CSC)C[C@@H]2c3cccc4[nH]cc(c34)C[C@H]21` [Pergolide mesylate], the “percent Bodipy-positive cells” value worked out at 51.1 ± 16%. Moreover, under setting [6], the “percent Bodipy-positive cells” value is 17.7 ± 6.9%. The “percent Bodipy-positive cells” value (library stock concentration: 4.9 mM) is 35.8 ± 1.5%. Besides, the “percent Bodipy-positive cells” value (library stock concentration: 6.4 mM) stood at 28.9 ± 1.2%. In addition, the “percent Bodipy-positive cells” value under setting [1] is 66.2% and 61.3%.
As for `CC(=O)Nc1ccc(Cc2ccc(NC(C)=O)cc2)cc1`, the “percent Bodipy-positive cells” value under setting [6] was 39.6 ± 6.1% and the “percent Bodipy-positive cells” value under setting [1] amounted to 44.4 ± 2.2%.
Turning to `C=C(C)[C@@H]1[C@H]2OC(=O)[C@@H]1[C@]1(O)C[C@H]3O[C@]34C(=O)O[C@H]2[C@]14C.CC(C)(O)[C@@H]1[C@H]2OC(=O)[C@@H]1[C@]1(O)C[C@H]3O[C@]34C(=O)O[C@H]2[C@]14C` [Picrotin - Picrotoxinin], the “percent Bodipy-positive cells” value under setting [1] was 8.93 ± 0.99%.
Take `N.N.[Cl][Pt][Cl]` [Cisplatin]: the “percent Bodipy-positive cells” value by setting is: under setting [6], 8.43 ± 5.2%; under setting [2], 23.1 ± 7.2%.
For the compound `COc1cc(-n2c(=S)[nH]c3ccccc3c2=O)c(Cl)cc1Cl` [Mdivi-1], the “percent Bodipy-positive cells” value came to 27 ± 2.3% under setting [6] and 23.18 ± 0.18% under setting [1].
As to `C[N+](C)(C)CC#CCOC(=O)Nc1cccc(Cl)c1`, under setting [1], the “percent Bodipy-positive cells” value stood at 32.5 ± 8.8%.
For the compound `c1cc2ccc(N3CCNCC3)cc2cn1` [7-piperazin-1-yl-Isoquinoline (hydrochloride)], the “percent Bodipy-positive cells” value under setting [3] stood at 17.4 ± 13%.
Regarding `CC[C@@H](C)C(=O)O[C@H]1[C@H](O)[C@H]2[C@@H](CN3C[C@@H](C)CC[C@H]3[C@@]2(C)O)[C@@H]2C[C@]34O[C@]5(O)[C@@H](OC(=O)[C@](C)(O)[C@@H](C)O)CC[C@@]3(C)[C@@H]5[C@@H](OC(C)=O)[C@@H](OC(C)=O)[C@H]4[C@@]21O` (stereo in doubt) [Protoveratrine b], the “percent Bodipy-positive cells” value under setting [1] is 45.4 ± 30%.
With `c1cc(Cc2cnc[nH]2)ccn1` [Immethridine dihydrobromide], the “percent Bodipy-positive cells” value under setting [1] worked out at 7.53 ± 0.19%.
On the same count and under the same terms, the result for `Oc1cccc2cccnc12` [Oxyquinoline hemisulfate] reads 15.9 ± 3.4%; that for `CC(C)(O)C(Cl)(Cl)Cl`, 35.8 ± 8.1%.
On to `COc1ccc(CCN)cc1OC` [Homoveratrylamine], for which, under setting [1], the “percent Bodipy-positive cells” value was 5.68 ± 0.47%.
Regarding `CC1=C(O)C(=O)C=C2C1=CC=C1[C@@]2(C)CC[C@@]2(C)[C@@H]3C[C@](C)(C(=O)O)CC[C@]3(C)CC[C@]12C` [Celastrol], the “percent Bodipy-positive cells” value under setting [4] turned out to be 19.9 ± 4.7%, the “percent Bodipy-positive cells” value under setting [5] is 21.7 ± 1.2% and the “percent Bodipy-positive cells” value under setting [1] came to 100%.
